The target in this test is T1, Lrig-1 protein (leucine-rich and immunoglobulin-like domains 1) expressed on the surface of L cells (human) (UniProt Q96JA1).
T1 sequence: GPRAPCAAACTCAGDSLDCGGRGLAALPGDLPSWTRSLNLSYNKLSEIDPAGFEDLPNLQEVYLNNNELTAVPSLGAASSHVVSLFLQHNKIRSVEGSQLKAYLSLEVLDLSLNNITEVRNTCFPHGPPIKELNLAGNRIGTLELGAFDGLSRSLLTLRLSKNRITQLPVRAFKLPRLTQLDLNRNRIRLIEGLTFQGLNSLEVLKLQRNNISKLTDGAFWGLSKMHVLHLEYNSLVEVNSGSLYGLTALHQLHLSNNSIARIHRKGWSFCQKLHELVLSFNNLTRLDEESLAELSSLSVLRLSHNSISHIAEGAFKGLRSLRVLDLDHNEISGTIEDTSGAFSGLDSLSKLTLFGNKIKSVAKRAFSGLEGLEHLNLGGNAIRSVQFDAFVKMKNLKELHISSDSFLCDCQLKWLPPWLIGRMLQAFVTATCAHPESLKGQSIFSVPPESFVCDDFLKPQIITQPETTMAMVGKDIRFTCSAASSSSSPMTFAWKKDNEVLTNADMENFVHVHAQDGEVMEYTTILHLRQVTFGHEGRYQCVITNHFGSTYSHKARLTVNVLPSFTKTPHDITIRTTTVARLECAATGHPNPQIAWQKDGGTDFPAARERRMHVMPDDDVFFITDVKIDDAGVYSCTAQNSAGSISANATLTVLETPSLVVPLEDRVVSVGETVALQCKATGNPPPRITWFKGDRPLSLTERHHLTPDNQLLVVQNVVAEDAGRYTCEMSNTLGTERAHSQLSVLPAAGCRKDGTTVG
The test is described as follows: FACS on L cells stably expressing Lrig-1, eFluor 670 anti-mouse secondary antibody.

Where a chain is given by its changes, count along the chain named. Results are given in words; binding and its absence hold for the method and conditions named. Some results given as binding are weak or reduced against the parent protein; the word gives no strength.

B1: GTC110-04 clone (Production Example 8), Lrig-1 protein-specific monoclonal antibody (antibody, mouse IgG2a, V domains shown)
VH: EVQLLESGGGLVQPGGSLRLSCAASGFTFSNYAMSWVRQAPGKGLEWVSVISHGGGSTYYADSVKGRFTISRDNSKNTLYLQMNSLRAEDTAVYYCARVISNCHLGVCYYSNGMDVWGQGTLVTVSS
VL: QSVLTQPPSASGTPGQRVTISCSGSSSNIGNNDVYWYQQLPGTAPKLLIYSDSQRPSGVPDRFSGSKSGTSASLAISGLRSEDEADYYCGTWDYSLSGYVFGGGTKLTVLR
Consider B1, for which the binding entry is “binds”.

B2: GTC210-01 clone (Production Example 1), Lrig-1 protein-specific monoclonal antibody (antibody, mouse IgG2a, V domains shown)
VH: EVQLLESGGGLVQPGGSLRLSCAASGFTFSGYDMSWVRQAPGKGLEWVSLIYPDSGNKYYADSVKGRFTISRDNSKNTLYLQMNSLRAEDTAVYYCARDAGLSWAGAFDYWGQGTLVTVSS
VL: B1 VL with N31S, D33Y, Y35T, Q54H, R80Q, T91S, G98A
Consider B2, for which the binding result is given as “binds”.

(Values after patent US20220213186A1.)
